Test results taken from paper PMC9810599.
Results are given in words; binding and its absence hold for the method and conditions named. Binding seen in cells or lysates may run through a third protein. Here binding means that the protein was enriched with, or labelled near, the bait; the list need not be complete. For some assays here: No binding means not detected with the bait. For some assays here: Sequences can lack the tags named with a protein.

Sequences of proteins named here, by UniProt entry; tags and fusion partners are left off. Residues count along the entry.
UniProt P0CS90, residues 24-654: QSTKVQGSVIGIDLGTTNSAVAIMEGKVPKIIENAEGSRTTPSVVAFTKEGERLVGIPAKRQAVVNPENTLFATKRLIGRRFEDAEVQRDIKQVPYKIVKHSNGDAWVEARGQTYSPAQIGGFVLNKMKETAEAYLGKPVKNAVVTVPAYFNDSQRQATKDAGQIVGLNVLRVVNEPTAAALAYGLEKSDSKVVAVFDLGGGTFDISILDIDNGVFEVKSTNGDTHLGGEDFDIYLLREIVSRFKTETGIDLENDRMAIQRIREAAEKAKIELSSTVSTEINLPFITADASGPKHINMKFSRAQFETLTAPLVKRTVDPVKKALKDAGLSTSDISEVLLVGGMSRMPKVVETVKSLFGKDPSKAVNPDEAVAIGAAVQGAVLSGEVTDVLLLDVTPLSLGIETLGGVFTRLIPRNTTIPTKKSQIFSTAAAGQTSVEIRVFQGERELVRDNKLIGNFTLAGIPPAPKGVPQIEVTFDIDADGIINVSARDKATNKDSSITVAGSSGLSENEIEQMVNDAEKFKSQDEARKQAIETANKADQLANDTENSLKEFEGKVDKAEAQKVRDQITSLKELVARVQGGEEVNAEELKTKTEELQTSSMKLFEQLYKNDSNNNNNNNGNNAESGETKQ

B1: Atp15 (protein, UniProt P21306 1-62)
chain: MSAWRKAGISYAAYLNVAAQAIRSSLKTELQTASVLNRSQTDAFYTQYKNGTAASEPTPITK
B2: Atp7 (subunit d of the ATP synthase) (protein, UniProt P30902 1-174)
chain: MSLAKSAANKLDWAKVISSLRITGSTATQLSSFKKRNDEARRQLLELQSQPTEVDFSHYRSVLKNTSVIDKIESYVKQYKPVKIDASKQLQVIESFEKHAMTNAKETESLVSKELKDLQSTLDNIQSARPFDELTVDDLTKIKPEIDAKVEEMVKKGKWDVPGYKDRFGNLNVM
B3: Atp4 (subunit b of the ATP synthase) (protein, UniProt P05626 36-244)
chain: MSSTPEKQTDPKAKANSIINAIPGNNILTKTGVLGTSAAAVIYAISNELYVINDESILLLTFLGFTGLVAKYLAPAYKDFADARMKKVSDVLNASRNKHVEAVKDRIDSVSQLQNVAETTKVLFDVSKETVELESEAFELKQKVELAHEAKAVLDSWVRYEASLRQLEQRQLAKSVISRVQSELGNPKFQEKVLQQSISEIEQLLSKLK
B4: Atp11 (assembly factor) (protein, UniProt P32453 41-318)
chain: QKYRKKLLEEAQKQGFNSIEELKNHLKETIESKKREFNKIDPLKELEDYQQKTQMENNNSKHLMTKSRSPLDPSAPKVPFKTLDSFLDVGKLKDLSKQEVEFLWRARWAQKDNTLCAVIPVSVYDKMMANARNNPIFVLPLPRQVQSEDAKPNEEQGMELHYIQWQFVGPQTTHCMMTSLAEYKLHQEFARPHTTLQFHSDLVKDKGIVFMNGHVEPDTNVNVQDAQLLLLNVQRFYGAMGEETPVAKQRVQLLRDFSKASPGFTVEKLISLSQSMEN
B5: Ccp1 (protein, UniProt P00431 68-361)
chain: TTPLVHVASVEKGRSYEDFQKVYNAIALKLREDDEYDNYIGYGPVLVRLAWHTSGTWDKHDNTGGSYGGTYRFKKEFNDPSNAGLQNGFKFLEPIHKEFPWISSGDLFSLGGVTAVQEMQGPKIPWRCGRVDTPEDTTPDNGRLPDADKDADYVRTFFQRLNMNDREVVALMGAHALGKTHLKNSGYEGPWGAANNVFTNEFYLNLLNEDWKLEKNDANNEQWDSKSGYMMLPTDYSLIQDPKYLSIVKEYANDQDKFFKDFSKAFEKLLENGITFPKDAPSPFIFKTLEEQGL
B6: Atp3 (subunit γ of the ATP synthase) (protein, UniProt P38077 34-311)
chain: ATLKEVEMRLKSIKNIEKITKTMKIVASTRLSKAEKAKISAKKMDEAEQLFYKNAETKNLDVEATETGAPKELIVAITSDKGLCGSIHSQLAKAVRRHLNDQPNADIVTIGDKIKMQLLRTHPNNIKLSINGIGKDAPTFQESALIADKLLSVMKAGTYPKISIFYNDPVSSLSFEPSEKPIFNAKTIEQSPSFGKFEIDTDANVPRDLFEYTLANQMLTAMAQGYAAEISARRNAMDNASKNAGDMINRYSILYNRTRQAVITNELVDIITGASSLG
B7: Atp5 (oligomycin sensitivity conferring protein, OSCP) (protein, UniProt P09457 18-212)
chain: ASKAAAPPPVRLFGVEGTYATALYQAAAKNSSIDAAFQSLQKVESTVKKNPKLGHLLLNPALSLKDRNSVIDAIVETHKNLDGYVVNLLKVLSENNRLGCFEKIASDFGVLNDAHNGLLKGTVTSAEPLDPKSFKRIEKALSASKLVGQGKSLKLENVVKPEIKGGLIVELGDKTVDLSISTKIQKLNKVLEDSI
B8: Lys2 (protein, UniProt P07702 1-1392)
chain: MTNEKVWIEKLDNPTLSVLPHDFLRPQQEPYTKQATYSLQLPQLDVPHDSFSNKYAVALSVWAALIYRVTGDDDIVLYIANNKILRFNIQPTWSFNELYSTINNELNKLNSIEANFSFDELAEKIQSCQDLERTPQLFRLAFLENQDFKLDEFKHHLVDFALNLDTSNNAHVLNLIYNSLLYSNERVTIVADQFTQYLTAALSDPSNCITKISLITASSKDSLPDPTKNLGWCDFVGCIHDIFQDNAEAFPERTCVVETPTLNSDKSRSFTYRDINRTSNIVAHYLIKTGIKRGDVVMIYSSRGVDLMVCVMGVLKAGATFSVIDPAYPPARQTIYLGVAKPRGLIVIRAAGQLDQLVEDYINDELEIVSRINSIAIQENGTIEGGKLDNGEDVLAPYDHYKDTRTGVVVGPDSNPTLSFTSGSEGIPKGVLGRHFSLAYYFNWMSKRFNLTENDKFTMLSGIAHDPIQRDMFTPLFLGAQLYVPTQDDIGTPGRLAEWMSKYGCTVTHLTPAMGQLLTAQATTPFPKLHHAFFVGDILTKRDCLRLQTLAENCRIVNMYGTTETQRAVSYFEVKSKNDDPNFLKKLKDVMPAGKGMLNVQLLVVNRNDRTQICGIGEIGEIYVRAGGLAEGYRGLPELNKEKFVNNWFVEKDHWNYLDKDNGEPWRQFWLGPRDRLYRTGDLGRYLPNGDCECCGRADDQVKIRGFRIELGEIDTHISQHPLVRENITLVRKNADNEPTLITFMVPRFDKPDDLSKFQSDVPKEVETDPIVKGLIGYHLLSKDIRTFLKKRLASYAMPSLIVVMDKLPLNPNGKVDKPKLQFPTPKQLNLVAENTVSETDDSQFTNVEREVRDLWLSILPTKPASVSPDDSFFDLGGHSILATKMIFTLKKKLQVDLPLGTIFKYPTIKAFAAEIDRIKSSGGSSQGEVVENVTANYAEDAKKLVETLPSSYPSREYFVEPNSAEGKTTINVFVTGVTGFLGSYILADLLGRSPKNYSFKVFAHVRAKDEEAAFARLQKAGITYGTWNEKFASNIKVVLGDLSKSQFGLSDEKWMDLANTVDIIIHNGALVHWVYPYAKLRDPNVISTINVMSLAAVGKPKFFDFVSSTSTLDTEYYFNLSDKLVSEGKPGILESDDLMNSASGLTGGYGQSKWAAEYIIRRAGERGLRGCIVRPGYVTGASANGSSNTDDFLLRFLKGSVQLGKIPDIENSVNMVPVDHVARVVVATSLNPPKENELAVAQVTGHPRILFKDYLYTLHDYGYDVEIESYSKWKKSLEASVIDRNEENALYPLLHMVLDNLPESTKAPELDDRNAVASLKKDTAWTGVDWSNGIGVTPEEVGIYIAFLNKVGFLPPPTHNDKLPLPSIELTQAQISLVASGAGARGSSAAA
B9: Atp12 (assembly factor) (protein, UniProt P22135 33-325)
chain: DNTIENNTPTETNRLSKTSQKFWEKVSLNRDVEKGKIALQLDGRTIKTPLGNGIIVDNAKSLLAYLLKLEWSSLSSLSIKTHSLPLTSLVARCIDLQMTNEPGCDPQLVAKIGGNSDVIKNQLLRYLDTDTLLVFSPMNEFEGRLRNAQNELYIPIIKGMEEFLRNFSSESNIRLQILDADIHGLRGNQQSDIVKNAAKKYMSSLSPWDLAILEKTVLTTKSFICGVLLLENKKDTANLIPALKTDMDNIVRAATLETIFQVEKWGEVEDTHDVDKRDIRRKIHTAAIAAFKQ

Target: His-tagged mitochondrial Hsp70 (mtHsp70His) (S. cerevisiae) (UniProt P0CS90)
Assay: affinity purification with mass spectrometry; mtHsp70His purified on Ni-NTA agarose from digitonin-lysed mitochondria of SILAC-labelled ρ+ and ρ0 cells, in the absence of ATP; elution fractions mixed; ratios ρ0 versus ρ+

Row | binding | Binder
1 | binds | B1
2 | binds | B2
3 | binds | B3
4 | binds | B4
5 | no binding | B5
6 | binds | B6
7 | binds | B7
8 | no binding | B8
9 | binds | B9

Target: mitochondrial Hsp70 (mtHsp70), wild type (S. cerevisiae (endogenous in yeast mitochondria)) (UniProt P0CS90)
Assay: affinity purification with mass spectrometry; Mge1His coupled to Ni-NTA agarose captures mtHsp70 with its bound proteins from digitonin lysates of SILAC-labelled wild-type and ρ0 mitochondria, in the absence of ATP

Row | binding | Binder
10 | binds | B4
11 | binds | B9
